Screening data, single-dose tests

Measurements from “University of Dundee, Small-Polar-MMV Screening Library” (2021), ChEMBL document CHEMBL3988442.

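Phenotypic screen: M. tuberculosis growth, cholesterol and DPPC medium, 4 days; the read-out is not stated. Concentration: 50 µM. The record gives no direction; compounds that gave an IC50 in retests scored well above the rest, so higher reads as more growth inhibition. Size under these conditions: about 69,000 compounds, about 370 of them at 50% or above in at least one test.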

Values are the deposited “Percent Effect”, in %. How 0% and 100% were set is not recorded. Most values in the screen are low, and negative values occur. Compounds were drawn at random from those tested, without regard to their results. Two or more numbers in one place are separate tests of the same structure; such repeats can differ widely.

With CCn1c(C)nnc1SCCNC(=O)Cn1cnc2ccccc2c1=O the screen gave -12.06% & -11.68%.
With CO[C@H]1COCCN(C(=O)c2ccc(C(F)(F)F)cc2)C1 the screen gave -1.509%.
With CCCOCC1CCN(C(=O)c2cnc(-c3cccnc3)nc2O)C1 (centres unmarked) the screen gave -11.7%.
With FC(F)(F)c1cccnc1N1CCC(OC2CCOCC2)CC1 the screen gave 7.859%.
With CC(C)c1nnsc1CN1CCc2[nH]nc(-c3ccc(F)c(F)c3)c2C1 the screen gave 5.443%.
With Cn1c(CNCC2CCCN2c2cccnn2)nc2ccccc21 (centres unmarked) the screen gave 7.519%.
With Cc1nc2c(c(NCCNC(=O)C(C)C)n1)Cc1ccccc1OC2 the screen gave -8.008%.
With CCn1nc2nc(SCC(=O)O)cc(C(F)F)c2c1C the screen gave 0.9368%.
With CCSc1nnc([C@@H](N)CC(C)C)o1.Cl the screen gave 7.466%.
With Cc1n[nH]c(C)c1CCN(C)C(=O)c1ccc(CCC(C)(C)O)cc1 the screen gave -20.61%.
With Cc1oc(-c2ccc(F)cc2F)nc1CN1C[C@@H](C)O[C@@H](C)C1 the screen gave -19.4%.
With O=C(Nc1ccc2occc2c1)N1CCCC(O)(CO)CC1 (centres unmarked) the screen gave 0.2671%.
With Cn1ccc(C(=O)N2CCOC(c3ccccn3)C2)cc1=O (centres unmarked) the screen gave -35.91%.
With Cc1ccc(NC2CCN(C(=O)Cc3ccc(C)s3)CC2)nn1 the screen gave 12.89%.
With CCN1CCN(S(=O)(=O)c2cc(C)c(C)cc2Br)CC1 the screen gave 11.17%.
With CCOc1nnc(CN(C)C2CCCN(c3ccc(C)nn3)C2)s1 (centres unmarked) the screen gave -22.33%.
With Cc1cc(C)n(CC(=O)N2CCC(c3nc(C(C)C)no3)CC2)n1 the screen gave 7.617%.
With CCCn1nnnc1CN1Cc2ccccc2CC1c1nnc(C)o1 (centres unmarked) the screen gave 15.24%.
With COC(=O)[C@@H]1CCCN1C(=O)c1cn(CCCc2ccccc2)nn1 the screen gave -22.7%.
With CCOC(=O)c1cnn(C2CCN(C(=O)CC(C)(C)C)CC2)c1N the screen gave -12.26%.
With O=C(Cn1cccn1)NCC(c1cccs1)N1CCCC1 (centres unmarked) the screen gave 5.974%.
With c1cc(-c2ccc(CN3CCCC4(CCNC4)C3)s2)[nH]n1 (centres unmarked) the screen gave -10.09%.
With CC(=O)c1c(O)n(C)c2ccccc12 the screen gave -18.78%.
With COC(=O)N1CCC2(CC1)N=C(CCC(C)C)NC2=O the screen gave -4.455% & -12.05%.
With Cc1cccc(CN2CCc3c(nc(N4CCCCC4C)[nH]c3=O)C2)n1 (centres unmarked) the screen gave -0.3174%.
With COc1ccc(CNCc2cn(C)nc2C)cc1 the screen gave -13.22%.
With N#CC1(C(=O)NCCCNc2ccc(C(F)(F)F)cn2)CCCC1 the screen gave 92.99%.
With CCCC(=O)NCc1cccc(C(=O)OC)c1 the screen gave 10.29%.
With O=C(COCC(F)(F)F)N1CCCC(n2cccn2)C1 (centres unmarked) the screen gave 7.709%.
With c1ccc(Cc2noc(CN3CCCCC3Cn3cccn3)n2)cc1 (centres unmarked) the screen gave -4.607%.

Once more, the final 3:

CCCC(=O)NCc1cccc(C(=O)OC)c1 gave 10.29%.
O=C(COCC(F)(F)F)N1CCCC(n2cccn2)C1 (centres unmarked) gave 7.709%.
c1ccc(Cc2noc(CN3CCCCC3Cn3cccn3)n2)cc1 (centres unmarked) gave -4.607%.